Test results taken from article PMC5223379.
No constants are given. Whether binding was seen depends on the method and setting. Some binding calls cover weakened binding; strength is not graded here. Tags and fused reporters may be left off the sequences shown.

Target: T1, Gal4-DNA-BD-Irr1Δ1-467 (C-terminal part of Irr1 starting from I468) (S. cerevisiae) (UniProt P40541)
T1 sequence: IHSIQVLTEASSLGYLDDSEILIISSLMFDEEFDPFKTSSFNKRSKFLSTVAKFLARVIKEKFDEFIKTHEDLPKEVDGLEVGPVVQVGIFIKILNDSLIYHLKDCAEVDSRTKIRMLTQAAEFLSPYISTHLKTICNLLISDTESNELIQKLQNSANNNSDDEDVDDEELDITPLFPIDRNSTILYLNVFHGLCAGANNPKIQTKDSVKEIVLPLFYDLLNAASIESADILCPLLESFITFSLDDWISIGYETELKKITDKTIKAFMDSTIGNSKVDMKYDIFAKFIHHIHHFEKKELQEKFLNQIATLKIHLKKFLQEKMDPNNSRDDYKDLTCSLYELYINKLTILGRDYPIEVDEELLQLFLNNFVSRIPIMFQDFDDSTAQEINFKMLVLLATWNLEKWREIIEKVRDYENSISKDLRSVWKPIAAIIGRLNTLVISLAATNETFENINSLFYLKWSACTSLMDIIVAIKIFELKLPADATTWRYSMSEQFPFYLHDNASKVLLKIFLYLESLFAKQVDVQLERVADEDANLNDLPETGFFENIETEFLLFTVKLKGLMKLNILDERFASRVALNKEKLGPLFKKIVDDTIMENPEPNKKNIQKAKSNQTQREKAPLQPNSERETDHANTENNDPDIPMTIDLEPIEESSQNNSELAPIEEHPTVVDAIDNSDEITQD
Test: two-hybrid; Gal4 system in strain PJ69-4α; bait Gal4-DNA-BD fusion from pGBKT7, preys AD-Gal4 fusions (genomic library screen and direct test); growth on SD lacking histidine with 10 mM 3-amino-1,2,4-triazole

- binding: binds
Substance: Mrps5 fragment P56-G260 (two-hybrid prey) (from UniProt P33759 56-260) (domain or fragment)
